The record followed here is paper PMC9709059.

Results are given in words; binding and its absence hold for the method and conditions named. In cells and extracts the contact can be indirect. Some results given as binding are weak or reduced against the parent protein; the word gives no strength.

The assay deals with T1, ASB6 (human (endogenous in CRC cell lines LoVo and HCT116)) (UniProt Q9NWX5).
T1 sequence: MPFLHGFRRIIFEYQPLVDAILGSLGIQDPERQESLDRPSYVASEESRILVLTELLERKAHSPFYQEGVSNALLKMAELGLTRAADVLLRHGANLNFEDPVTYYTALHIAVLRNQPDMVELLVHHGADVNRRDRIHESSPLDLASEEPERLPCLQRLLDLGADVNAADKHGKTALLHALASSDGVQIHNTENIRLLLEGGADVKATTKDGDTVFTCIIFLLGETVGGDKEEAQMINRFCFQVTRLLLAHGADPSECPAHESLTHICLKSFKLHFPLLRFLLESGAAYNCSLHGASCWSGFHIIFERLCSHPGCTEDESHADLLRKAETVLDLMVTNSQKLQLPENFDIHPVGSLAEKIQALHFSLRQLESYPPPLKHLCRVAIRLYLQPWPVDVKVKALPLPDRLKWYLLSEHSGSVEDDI
Briefly: co-IP; anti-ASB6 antibody (2 ug, sc-515649) or normal mouse IgG incubated with cell lysates at 4 °C overnight, then Protein A/G agarose; eluted proteins analysed by Western blotting; also done in circFNDC3B-overexpressing cells (association enhanced). For orientation: In western blotting, separated proteins are transferred to a membrane and probed.

B1: Ring finger protein 41 (RNF41) (enzyme, UniProt Q9H4P4 1-317)
chain: MGYDVTRFQGDVDEDLICPICSGVLEEPVQAPHCEHAFCNACITQWFSQQQTCPVDRSVVTVAHLRPVPRIMRNMLSKLQIACDNAVFGCSAVVRLDNLMSHLSDCEHNPKRPVTCEQGCGLEMPKDELPNHNCIKHLRSVVQQQQTRIAELEKTSAEHKHQLAEQKRDIQLLKAYMRAIRSVNPNLQNLEETIEYNEILEWVNSLQPARVTRWGGMISTPDAVLQAVIKRSLVESGCPASIVNELIENAHERSWPQGLATLETRQMNRRYYENYVAKRIPGKQAVVVMACENQHMGDDMVQEPGLVMIFAHGVEEI
Turning to B1, the binding entry is on record as “binds”.
